Reference: patent US9029503 (dated 2015)

Legend:
[1] = general procedure: Fmoc solid-phase peptide synthesis; bis(2-sulfanylethyl)amino trityl resin (Examples 5/6); Fmoc-Gly-Wang; Novasyn TGR; HBTU/DiEA; details: whole synthesis, scale of the general procedure 0.1 mmol to 0.5 mmol; for isolated yield: final yield
[2] = general procedure: Fmoc solid-phase peptide synthesis; Fmoc-Gly-Wang resin; HBTU/DiEA; details: whole synthesis, HPLC and capillary electrophoresis, scale 0.5 mmol

| Substance | final HPLC purity [1] [%] | isolated yield [1] [%] | crude HPLC purity [2] [%] |
| --- | --- | --- | --- |
| H-ILKEPVHGG-N(CH2CH2SH)2 | 96 | 17 | – |
| H-ILKEPVHGY-N(CH2CH2SH)2 | – | 20 | – |
| H-GFGQGFGG-OH | – | – | 79 |
| H-ILKEPVHGA -N(CH2CH2SH)2 | 97 | – | – |
| H-ILKEPVHGV-N(CH2CH2SH)2 | 99 | 23 | – |
